T1: TOX conjugated with a GFP tag (thymocyte selection-associated high mobility group box) (UniProt O94900)
T1 sequence: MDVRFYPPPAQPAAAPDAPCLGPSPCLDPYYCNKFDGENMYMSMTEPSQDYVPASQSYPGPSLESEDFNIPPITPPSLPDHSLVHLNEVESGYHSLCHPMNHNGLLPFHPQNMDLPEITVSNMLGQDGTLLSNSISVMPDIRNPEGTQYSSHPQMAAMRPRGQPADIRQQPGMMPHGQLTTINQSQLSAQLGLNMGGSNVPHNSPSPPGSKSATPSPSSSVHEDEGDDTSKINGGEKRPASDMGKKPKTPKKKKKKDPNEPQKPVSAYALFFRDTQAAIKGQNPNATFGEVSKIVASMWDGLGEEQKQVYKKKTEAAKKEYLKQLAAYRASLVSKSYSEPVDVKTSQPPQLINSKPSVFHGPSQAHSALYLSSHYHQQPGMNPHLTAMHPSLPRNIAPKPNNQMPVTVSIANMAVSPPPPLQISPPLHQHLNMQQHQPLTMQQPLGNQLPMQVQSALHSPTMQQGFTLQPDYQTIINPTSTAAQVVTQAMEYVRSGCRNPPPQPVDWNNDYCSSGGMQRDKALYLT

Amino acid sequences for entries named in this document (tags omitted).
UniProt P17096: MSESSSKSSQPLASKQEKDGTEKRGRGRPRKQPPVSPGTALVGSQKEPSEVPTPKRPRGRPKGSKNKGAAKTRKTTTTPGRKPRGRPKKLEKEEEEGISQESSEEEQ
UniProt P19474: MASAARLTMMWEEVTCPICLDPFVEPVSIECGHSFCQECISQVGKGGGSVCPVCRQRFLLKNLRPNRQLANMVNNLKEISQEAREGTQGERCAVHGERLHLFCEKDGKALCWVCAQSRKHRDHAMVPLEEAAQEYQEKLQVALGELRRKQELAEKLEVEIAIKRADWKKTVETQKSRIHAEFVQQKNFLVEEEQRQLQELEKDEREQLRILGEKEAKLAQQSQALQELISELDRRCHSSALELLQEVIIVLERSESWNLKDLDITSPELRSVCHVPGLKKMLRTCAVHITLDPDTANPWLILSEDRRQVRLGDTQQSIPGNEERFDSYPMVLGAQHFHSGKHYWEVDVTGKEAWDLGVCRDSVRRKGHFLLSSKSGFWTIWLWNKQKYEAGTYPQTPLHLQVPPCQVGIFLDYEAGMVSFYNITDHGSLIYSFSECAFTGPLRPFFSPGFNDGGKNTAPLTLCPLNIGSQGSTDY

B1: FLOT2 (protein, UniProt Q14254 1-428)
chain: MGNCHTVGPNEALVVSGGCCGSDYKQYVFGGWAWAWWCISDTQRISLEIMTLQPRCEDVETAEGVALTVTGVAQVKIMTEKELLAVACEQFLGKNVQDIKNVVLQTLEGHLRSILGTLTVEQIYQDRDQFAKLVREVAAPDVGRMGIEILSFTIKDVYDKVDYLSSLGKTQTAVVQRDADIGVAEAERDAGIREAECKKEMLDVKFMADTKIADSKRAFELQKSAFSEEVNIKTAEAQLAYELQGAREQQKIRQEEIEIEVVQRKKQIAVEAQEILRTDKELIATVRRPAEAEAHRIQQIAEGEKVKQVLLAQAEAEKIRKIGEAEAAVIEAMGKAEAERMKLKAEAYQKYGDAAKMALVLEALPQIAAKIAAPLTKVDEIVVLSGDNSKVTSEVNRLLAELPASVHALTGVDLSKIPLIKKATGVQV
B2: FLOT1 (protein, UniProt O75955 1-427)
chain: MFFTCGPNEAMVVSGFCRSPPVMVAGGRVFVLPCIQQIQRISLNTLTLNVKSEKVYTRHGVPISVTGIAQVKIQGQNKEMLAAACQMFLGKTEAEIAHIALETLEGHQRAIMAHMTVEEIYKDRQKFSEQVFKVASSDLVNMGISVVSYTLKDIHDDQDYLHSLGKARTAQVQKDARIGEAEAKRDAGIREAKAKQEKVSAQYLSEIEMAKAQRDYELKKAAYDIEVNTRRAQADLAYQLQVAKTKQQIEEQRVQVQVVERAQQVAVQEQEIARREKELEARVRKPAEAERYKLERLAEAEKSQLIMQAEAEAASVRMRGEAEAFAIGARARAEAEQMAKKAEAFQLYQEAAQLDMLLEKLPQVAEEISGPLTSANKITLVSSGSGTMGAAKVTGEVLDILTRLPESVERLTGVSISQVNHKPLRTA
B3: KCTD10 (protein, UniProt Q9H3F6 1-313)
chain: MEEMSGESVVSSAVPAAATRTTSFKGTSPSSKYVKLNVGGALYYTTMQTLTKQDTMLKAMFSGRMEVLTDSEGWILIDRCGKHFGTILNYLRDGAVPLPESRREIEELLAEAKYYLVQGLVEECQAALQNKDTYEPFCKVPVITSSKEEQKLIATSNKPAVKLLYNRSNNKYSYTSNSDDNMLKNIELFDKLSLRFNGRVLFIKDVIGDEICCWSFYGQGRKIAEVCCTSIVYATEKKQTKVEFPEARIYEETLNILLYEAQDGRGPDNALLEATGGAAGRSHHLDEDEERERIERVRRIHIKRPDDRAHLHQ

Results are given in words; binding and its absence hold for the method and conditions named. In cells and extracts the contact can be indirect. A yes stands for co-enrichment or nearness to the bait. Other partners may have been found. Sequences can lack the tags named with a protein.

For the assay, the target named is T1, TOX conjugated with a GFP tag (thymocyte selection-associated high mobility group box). The experiment in a line: affinity purification with mass spectrometry; TOX-GFP immunoprecipitates from cell lysate, on-bead trypsin digestion, LC-MS/MS (Q-Exactive HF), label-free quantitation; called preliminary, with considerable variations between attempts.
As to “High Mobility Group A1 (HMGA1) (from UniProt P17096 1-107)”, the binding result is on record as “binds”.
Then TRIM21 (from UniProt P19474 1-475), with “binds”; and B1, with “binds”.
For B2, the binding entry was “binds”.
For B3, the binding entry is recorded as “binds”.
